Data taken from publication PMC11674800, “Second-Generation Antipsychotics Induce Metabolic Disruption in Adipose Tissue-Derived Mesenchymal Stem Cells Through an aPKC-Dependent Pathway” (Cells, 2024).
pIC50: −log10 of the molar value. Where two headings read alike, the source gives them in different places.

System: ADSCs
Assay: cells
Details: Homo sapiens, 72 h
[1] = read-out: IC50 (viability), ADSC#1, Figure 1a inset
[2] = read-out: IC50 (viability), ADSC#2, Figure 1a inset
[3] = read-out: IC50 (viability), ADSC#3, Figure 1a inset
[4] = read-out: IC50 (viability), ADSC#4, Figure 1a inset
[5] = read-out: IC50 (viability), ADSC#5, Figure 1a inset

SMILES	pIC50 (read-out: IC50 (cell viability), 72 h, most sensitive cell line)	pIC50 [1]	pIC50 [2]	pIC50 [3]	pIC50 [4]	pIC50 [5]	pIC50 (read-out: concentration reducing cell viability by 50%, 72 h, all tested cell lines)
CN1CCN(C2=Nc3cc(Cl)ccc3Nc3ccccc32)CC1 [clozapine]	4.42	4.17	4.00	4.42	4.20	4.38	
Cc1cc2c(s1)Nc1ccccc1N=C2N1CCN(C)CC1 [olanzapine]		3.77	3.72	3.93	< 3.80	4.01	< 4.02
